Some of the results follow.

The chains behind the UniProt entries cited, without tags or fusion partners. Where a name states a change or a piece, a line headed by the entry shows the natural chain unless it says otherwise.
UniProt Q8NCF5: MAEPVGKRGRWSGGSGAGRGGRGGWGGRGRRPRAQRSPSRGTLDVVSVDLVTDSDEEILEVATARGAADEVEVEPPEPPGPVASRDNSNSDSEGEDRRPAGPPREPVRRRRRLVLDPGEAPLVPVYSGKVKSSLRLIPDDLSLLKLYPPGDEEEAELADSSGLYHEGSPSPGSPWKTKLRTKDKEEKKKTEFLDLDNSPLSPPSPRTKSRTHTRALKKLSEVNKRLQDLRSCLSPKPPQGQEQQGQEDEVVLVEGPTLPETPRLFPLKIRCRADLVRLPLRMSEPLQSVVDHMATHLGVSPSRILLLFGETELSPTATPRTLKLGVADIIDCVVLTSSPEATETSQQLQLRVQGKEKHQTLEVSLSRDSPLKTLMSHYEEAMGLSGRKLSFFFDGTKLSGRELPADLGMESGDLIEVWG
UniProt Q7Z628: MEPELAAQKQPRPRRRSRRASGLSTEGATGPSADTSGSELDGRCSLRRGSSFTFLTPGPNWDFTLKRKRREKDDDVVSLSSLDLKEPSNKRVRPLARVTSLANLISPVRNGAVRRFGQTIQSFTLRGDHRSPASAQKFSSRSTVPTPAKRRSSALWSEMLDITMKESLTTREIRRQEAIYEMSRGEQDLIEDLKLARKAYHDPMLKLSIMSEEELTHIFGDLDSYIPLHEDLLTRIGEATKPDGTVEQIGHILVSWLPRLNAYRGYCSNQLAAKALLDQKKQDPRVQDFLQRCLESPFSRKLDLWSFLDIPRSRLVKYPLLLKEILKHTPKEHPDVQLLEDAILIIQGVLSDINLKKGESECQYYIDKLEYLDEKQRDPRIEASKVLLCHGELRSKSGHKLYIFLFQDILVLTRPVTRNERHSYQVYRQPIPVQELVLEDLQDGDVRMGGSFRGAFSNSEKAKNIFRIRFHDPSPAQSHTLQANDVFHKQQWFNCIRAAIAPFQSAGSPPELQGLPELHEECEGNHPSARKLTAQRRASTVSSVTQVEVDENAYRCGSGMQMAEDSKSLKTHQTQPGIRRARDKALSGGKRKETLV
UniProt Q96IV0: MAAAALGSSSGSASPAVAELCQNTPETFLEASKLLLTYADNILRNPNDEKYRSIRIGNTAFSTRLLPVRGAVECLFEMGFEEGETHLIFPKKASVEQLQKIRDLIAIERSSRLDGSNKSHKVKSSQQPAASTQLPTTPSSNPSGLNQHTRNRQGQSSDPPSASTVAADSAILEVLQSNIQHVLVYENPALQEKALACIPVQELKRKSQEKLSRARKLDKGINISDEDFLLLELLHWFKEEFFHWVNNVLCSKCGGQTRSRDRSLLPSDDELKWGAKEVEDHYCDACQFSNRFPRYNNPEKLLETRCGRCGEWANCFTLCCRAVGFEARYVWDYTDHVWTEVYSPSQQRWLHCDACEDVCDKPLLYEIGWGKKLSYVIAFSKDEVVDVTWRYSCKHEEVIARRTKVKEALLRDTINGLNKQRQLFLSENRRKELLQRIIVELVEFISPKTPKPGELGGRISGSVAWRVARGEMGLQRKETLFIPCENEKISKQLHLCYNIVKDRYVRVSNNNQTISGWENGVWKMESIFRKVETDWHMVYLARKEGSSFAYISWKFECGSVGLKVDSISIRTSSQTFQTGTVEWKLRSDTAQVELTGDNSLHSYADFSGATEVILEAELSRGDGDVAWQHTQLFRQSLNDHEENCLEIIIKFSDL
UniProt P35240: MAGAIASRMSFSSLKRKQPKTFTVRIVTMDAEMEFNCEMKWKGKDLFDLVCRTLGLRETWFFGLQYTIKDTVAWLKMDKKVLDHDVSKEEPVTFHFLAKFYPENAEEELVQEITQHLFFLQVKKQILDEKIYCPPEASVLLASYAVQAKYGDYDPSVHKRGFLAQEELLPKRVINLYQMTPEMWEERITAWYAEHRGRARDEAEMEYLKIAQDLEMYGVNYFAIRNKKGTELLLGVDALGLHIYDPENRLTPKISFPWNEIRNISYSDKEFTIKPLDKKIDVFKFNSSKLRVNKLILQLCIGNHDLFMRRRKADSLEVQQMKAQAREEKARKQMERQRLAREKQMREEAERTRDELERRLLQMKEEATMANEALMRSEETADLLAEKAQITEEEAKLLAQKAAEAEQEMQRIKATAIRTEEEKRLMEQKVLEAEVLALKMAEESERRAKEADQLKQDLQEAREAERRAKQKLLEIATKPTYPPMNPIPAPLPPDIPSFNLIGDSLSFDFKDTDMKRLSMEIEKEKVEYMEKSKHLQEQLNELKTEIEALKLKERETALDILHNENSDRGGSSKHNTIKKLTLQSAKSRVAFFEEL
UniProt Q9NX24: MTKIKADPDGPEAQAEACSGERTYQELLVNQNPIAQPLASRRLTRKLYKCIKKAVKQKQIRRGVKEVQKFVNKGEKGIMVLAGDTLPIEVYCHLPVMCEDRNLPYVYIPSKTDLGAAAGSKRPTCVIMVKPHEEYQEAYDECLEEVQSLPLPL
UniProt O43920, whole entry, looked up: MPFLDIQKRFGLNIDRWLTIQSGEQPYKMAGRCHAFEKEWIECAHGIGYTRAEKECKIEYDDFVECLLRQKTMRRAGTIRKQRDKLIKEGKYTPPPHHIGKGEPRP
UniProt Q9HCD5: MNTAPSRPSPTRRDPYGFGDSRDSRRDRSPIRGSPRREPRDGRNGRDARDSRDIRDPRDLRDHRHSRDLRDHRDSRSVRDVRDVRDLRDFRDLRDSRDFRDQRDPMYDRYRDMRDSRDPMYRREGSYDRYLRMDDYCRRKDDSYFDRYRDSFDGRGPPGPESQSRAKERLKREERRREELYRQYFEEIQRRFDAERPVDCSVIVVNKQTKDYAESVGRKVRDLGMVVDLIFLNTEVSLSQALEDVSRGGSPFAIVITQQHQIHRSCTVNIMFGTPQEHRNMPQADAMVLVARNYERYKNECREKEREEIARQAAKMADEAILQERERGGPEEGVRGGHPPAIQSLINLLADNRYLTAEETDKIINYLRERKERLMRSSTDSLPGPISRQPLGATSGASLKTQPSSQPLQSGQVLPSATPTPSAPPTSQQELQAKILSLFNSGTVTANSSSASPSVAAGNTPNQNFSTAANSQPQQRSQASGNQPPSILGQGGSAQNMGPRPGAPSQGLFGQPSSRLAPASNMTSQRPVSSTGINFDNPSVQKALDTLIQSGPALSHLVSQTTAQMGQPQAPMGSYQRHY
UniProt P28331, whole entry, looked up: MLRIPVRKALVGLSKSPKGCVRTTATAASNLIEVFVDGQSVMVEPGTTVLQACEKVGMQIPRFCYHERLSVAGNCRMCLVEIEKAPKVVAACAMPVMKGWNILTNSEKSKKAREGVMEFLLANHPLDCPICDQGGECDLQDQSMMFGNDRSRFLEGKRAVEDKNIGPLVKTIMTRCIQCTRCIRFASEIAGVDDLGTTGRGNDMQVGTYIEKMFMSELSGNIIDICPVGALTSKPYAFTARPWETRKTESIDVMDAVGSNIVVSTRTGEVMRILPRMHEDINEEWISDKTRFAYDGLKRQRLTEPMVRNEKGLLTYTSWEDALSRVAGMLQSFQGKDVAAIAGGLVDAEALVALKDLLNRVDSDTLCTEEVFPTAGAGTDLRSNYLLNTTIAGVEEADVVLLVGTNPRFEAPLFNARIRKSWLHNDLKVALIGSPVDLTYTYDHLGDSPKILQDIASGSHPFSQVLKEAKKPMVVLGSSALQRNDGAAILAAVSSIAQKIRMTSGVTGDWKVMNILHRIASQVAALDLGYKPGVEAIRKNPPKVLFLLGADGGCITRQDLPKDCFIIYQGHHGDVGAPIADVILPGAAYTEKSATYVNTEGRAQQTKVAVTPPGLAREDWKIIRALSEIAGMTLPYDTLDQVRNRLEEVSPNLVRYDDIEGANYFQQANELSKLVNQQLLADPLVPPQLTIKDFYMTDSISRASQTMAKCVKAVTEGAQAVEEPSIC
UniProt Q92692, whole entry, looked up: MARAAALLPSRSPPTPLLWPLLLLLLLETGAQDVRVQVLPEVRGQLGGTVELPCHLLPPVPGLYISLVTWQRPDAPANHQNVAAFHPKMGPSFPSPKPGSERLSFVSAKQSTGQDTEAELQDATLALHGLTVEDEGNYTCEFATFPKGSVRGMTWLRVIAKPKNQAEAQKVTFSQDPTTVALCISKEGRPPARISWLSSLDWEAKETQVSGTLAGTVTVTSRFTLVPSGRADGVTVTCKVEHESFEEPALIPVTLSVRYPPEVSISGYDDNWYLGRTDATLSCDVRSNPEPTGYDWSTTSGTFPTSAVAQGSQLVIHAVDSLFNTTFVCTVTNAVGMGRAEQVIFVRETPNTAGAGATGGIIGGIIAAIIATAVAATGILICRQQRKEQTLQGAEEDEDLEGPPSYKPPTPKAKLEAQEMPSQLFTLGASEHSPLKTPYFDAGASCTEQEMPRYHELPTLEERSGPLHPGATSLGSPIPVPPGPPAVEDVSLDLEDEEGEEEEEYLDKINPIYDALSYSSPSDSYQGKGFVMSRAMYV
UniProt Q9Y6M9, whole entry: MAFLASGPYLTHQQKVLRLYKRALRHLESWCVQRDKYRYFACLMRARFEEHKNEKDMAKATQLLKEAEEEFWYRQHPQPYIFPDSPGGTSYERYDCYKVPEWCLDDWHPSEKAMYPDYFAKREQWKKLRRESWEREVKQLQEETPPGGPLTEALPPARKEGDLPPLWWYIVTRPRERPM
UniProt O43678, whole entry, looked up: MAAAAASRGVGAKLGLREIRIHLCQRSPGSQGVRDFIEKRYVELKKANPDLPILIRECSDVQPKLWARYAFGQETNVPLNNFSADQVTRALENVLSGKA
UniProt Q9NX14, whole entry, looked up: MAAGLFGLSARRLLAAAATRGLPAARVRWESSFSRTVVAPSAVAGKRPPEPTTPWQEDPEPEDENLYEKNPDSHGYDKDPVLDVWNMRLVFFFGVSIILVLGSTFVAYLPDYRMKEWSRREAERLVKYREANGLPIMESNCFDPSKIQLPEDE
UniProt O75380, whole entry, looked up: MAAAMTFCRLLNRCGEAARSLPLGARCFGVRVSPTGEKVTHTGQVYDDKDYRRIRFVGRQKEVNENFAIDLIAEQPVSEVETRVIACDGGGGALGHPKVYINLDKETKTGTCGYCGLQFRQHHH
UniProt Q330K2: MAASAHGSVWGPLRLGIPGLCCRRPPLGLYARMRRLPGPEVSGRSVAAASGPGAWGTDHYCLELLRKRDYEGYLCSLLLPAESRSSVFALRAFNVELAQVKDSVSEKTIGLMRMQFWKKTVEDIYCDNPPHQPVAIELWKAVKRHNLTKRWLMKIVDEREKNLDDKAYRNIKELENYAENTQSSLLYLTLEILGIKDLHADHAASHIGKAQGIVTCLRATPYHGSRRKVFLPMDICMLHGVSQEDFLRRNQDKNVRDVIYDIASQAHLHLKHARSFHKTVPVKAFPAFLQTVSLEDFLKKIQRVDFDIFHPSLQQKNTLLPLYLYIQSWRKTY
UniProt Q86X76: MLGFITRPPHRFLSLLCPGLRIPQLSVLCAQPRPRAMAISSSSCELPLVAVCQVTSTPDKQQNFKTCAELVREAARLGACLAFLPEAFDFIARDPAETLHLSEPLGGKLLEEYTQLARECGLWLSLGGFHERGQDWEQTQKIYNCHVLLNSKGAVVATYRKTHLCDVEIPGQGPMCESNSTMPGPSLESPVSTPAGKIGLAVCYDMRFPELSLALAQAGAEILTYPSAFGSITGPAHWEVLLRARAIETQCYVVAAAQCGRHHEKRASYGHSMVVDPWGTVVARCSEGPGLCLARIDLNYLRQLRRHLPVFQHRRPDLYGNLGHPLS
UniProt Q9H3P2, whole entry, looked up: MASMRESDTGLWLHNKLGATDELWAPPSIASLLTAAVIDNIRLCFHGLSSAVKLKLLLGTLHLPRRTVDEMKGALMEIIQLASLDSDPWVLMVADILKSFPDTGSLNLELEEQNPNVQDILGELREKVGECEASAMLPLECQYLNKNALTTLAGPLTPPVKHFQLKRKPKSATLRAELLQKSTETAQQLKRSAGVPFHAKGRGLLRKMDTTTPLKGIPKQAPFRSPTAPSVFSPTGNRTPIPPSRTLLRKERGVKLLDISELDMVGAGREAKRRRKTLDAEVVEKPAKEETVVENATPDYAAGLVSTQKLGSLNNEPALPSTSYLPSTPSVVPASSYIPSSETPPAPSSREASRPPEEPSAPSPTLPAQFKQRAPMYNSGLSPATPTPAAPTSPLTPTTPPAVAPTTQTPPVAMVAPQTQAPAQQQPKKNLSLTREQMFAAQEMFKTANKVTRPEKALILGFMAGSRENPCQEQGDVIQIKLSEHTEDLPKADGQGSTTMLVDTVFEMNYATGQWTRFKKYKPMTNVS
UniProt Q7L592: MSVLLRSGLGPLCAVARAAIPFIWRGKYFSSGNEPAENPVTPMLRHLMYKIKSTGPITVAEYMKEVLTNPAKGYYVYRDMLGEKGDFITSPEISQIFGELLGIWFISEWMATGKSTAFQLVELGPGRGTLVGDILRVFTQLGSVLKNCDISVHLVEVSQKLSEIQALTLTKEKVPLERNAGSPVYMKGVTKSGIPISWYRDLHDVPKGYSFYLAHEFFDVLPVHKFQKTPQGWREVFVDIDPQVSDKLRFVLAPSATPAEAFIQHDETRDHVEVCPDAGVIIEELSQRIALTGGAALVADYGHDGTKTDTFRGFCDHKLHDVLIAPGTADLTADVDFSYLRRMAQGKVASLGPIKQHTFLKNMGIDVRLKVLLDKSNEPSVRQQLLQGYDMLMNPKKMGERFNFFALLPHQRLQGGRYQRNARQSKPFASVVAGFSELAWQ

We go through 40 targets from the supplement of paper PMC12067093, “Discovery and optimisation of a covalent ligand for TRIM25 and its application to targeted protein ubiquitination” (Chemical Science, 2025).
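Also: competitive chemoproteomic profiling in live THP-1 cells with an iodoacetamide desthiobiotin (IA-DTB) probe, comparing probe-labelled peptide intensities in compound-treated cells against DMSO-treated controls.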

Compound in one assay: CC1Cc2ccccc2N1C(=O)C1CCCN(C1)C(=O)CCl (mixture of isomers) [TRIM25 ligand 11 (diastereomer mixture)]
The assay is described as follows: probe-labelled cysteine peptide fold change vs DMSO (competition) (log2 fold change); higher = less target engagement (more negative = stronger competition). The settings on record: 10 µM; THP-1; incubation time: 4 h.
On to “NCF2_P19878_514_VFVEDCATTDLESTR (UniProt P19878)”, for which the “probe-labelled cysteine peptide fold change” value was -0.0153.
For “NDUFV1_P49821_385_HESCGQCTPCR (UniProt P49821)”, the “probe-labelled cysteine peptide fold change” value was -0.203.
The same measure, in the same setting: the figure for “NFATC2IP_Q8NCF5_332_LGVADIIDCVVLTSSPEATETSQQLQLR (UniProt Q8NCF5)” is 0.0113.
Same read-out and setting: the figure for “NET1_Q7Z628_267_GYCSNQLAAK (UniProt Q7Z628)” is 0.0505.
The same measure, in the same setting: to “NGLY1_Q96IV0_352_WLHCDACEDVCDKPLLYEIGWGK (UniProt Q96IV0)” belongs 0.151; to “NF2_P35240_133_IYCPPEASVLLASYAVQAK (UniProt P35240)”, 0.127.
In the case of “NFX1_Q12986_362_YECMVCCELVR (UniProt Q12986)”, the “probe-labelled cysteine peptide fold change” value was found to be 0.202.
On the same count and under the same terms, to “NHP2_Q9NX24_142_PHEEYQEAYDECLEEVQSLPLPL (UniProt Q9NX24)” belongs 0.181; to “NFX1_Q12986_295_STCDSENLAVINK (UniProt Q12986)”, 0.0624; to “NFX1_Q12986_832_SNIPCHLVDISCGLPCSATLPCGMHK (UniProt Q12986)”, -0.0383.
On the same count and under the same terms, to “NDC80_O14777_100_QLCEFLTENGYAHNVSMK (UniProt O14777)” belongs -0.0826.
The same measure, in the same setting: to “NDUFS5_O43920_33_CHAFEK (UniProt O43920)” belongs -0.112; to “NCOA5_Q9HCD5_200_FDAERPVDCSVIVVNK (UniProt Q9HCD5)”, -0.00264.
Consider “NDUFS1_P28331_226_MFMSELSGNIIDICPVGALTSK (UniProt P28331)”, for which the “probe-labelled cysteine peptide fold change” value stood at 0.296.
Regarding “NDUFB7_P17568_80_RDSFPNFLACK (UniProt P17568)”, the “probe-labelled cysteine peptide fold change” value came to 0.0829.
On the same count and under the same terms, to “NCDN_Q9UBB6_98_EAPDGCPDHVLR (UniProt Q9UBB6)” belongs -0.0446; to “NFKB1_P19838_161_MTEACIR (UniProt P19838)”, -0.0373; to “NECTIN2_Q92692_238_ADGVTVTCK (UniProt Q92692)”, 0.0565.
The same measure, in the same setting: to “NDUFA10_O95299_183_QCVDHYNEVK (UniProt O95299)” belongs 0.028; to “NCKIPSD_Q9NZQ3_412+429_CYLEELLHILTDADPEVCKK (UniProt Q9NZQ3)”, 0.0278; to “NDUFB9_Q9Y6M9_103_VPEWCLDDWHPSEK (UniProt Q9Y6M9)”, 0.267.
Regarding “NDUFA2_O43678_58_ECSDVQPK (UniProt O43678)”, the “probe-labelled cysteine peptide fold change” value is -0.154.
Still for that read-out and setting: to “NFATC3_Q12968_90_NYEGTCEIPESK (UniProt Q12968)” belongs -0.289; to “NDUFV1_P49821_238_LKPPFPADVGVFGCPTTVANVETVAVSPTICR (UniProt P49821)”, -0.0718; to “NELFCD_Q8IXH7_461_YFQLQTDHTPVHLALLDEISTCHQLLHPQVLQLLVK (UniProt Q8IXH7)”, 0.237.
Still for that read-out and setting: to “NIFK_Q9BYG3_118_LLECHFMPPEK (UniProt Q9BYG3)” belongs -0.0703.
As to “NDUFB11_Q9NX14_141_YREANGLPIMESNCFDPSK (UniProt Q9NX14)”, the “probe-labelled cysteine peptide fold change” value came to 0.00525.
On the same count and under the same terms, to “NDUFS6_O75380_112_TGTCGYCGLQFR (UniProt O75380)” belongs -0.267.
The same measure, in the same setting: to “NCL_P19338_543_EALNSCNK (UniProt P19338)” belongs 0.013.
As for “NIPSNAP1_Q9BPW8_106_LHLDEDYPCSLVGNWNTWYGEQDQAVHLWR (UniProt Q9BPW8)”, the “probe-labelled cysteine peptide fold change” value was -0.279.
Still for that read-out and setting: the figure for “NDRG3_Q9UGV2_166_FALNHPELVEGLVLINVDPCAK (UniProt Q9UGV2)” is 0.0797; for “NCSTN_Q92542_586_EQCQDPSKVPSENK (UniProt Q92542)” it is -0.276.
The same measure, in the same setting: to “NDUFAF6_Q330K2_236_VFLPMDICMLHGVSQEDFLR (UniProt Q330K2)” belongs -0.0491.
For the target “NIT1_Q86X76_292_CSEGPGLCLAR (UniProt Q86X76)”, the “probe-labelled cysteine peptide fold change” value was -0.0627.
The same measure, in the same setting: to “NHP2_Q9NX24_92_GIMVLAGDTLPIEVYCHLPVMCEDR (UniProt Q9NX24)” belongs -0.387; to “NELFA_Q9H3P2_44_LCFHGLSSAVK (UniProt Q9H3P2)”, -0.091; to “NELFCD_Q8IXH7_398_AVETVHNLCCNENK (UniProt Q8IXH7)”, 0.00283.
Still for that read-out and setting: the figure for “NCOR2_Q9Y618_1289_KGHVLSYEGGMSVTQCSK (UniProt Q9Y618)” is 0.00374; for “NDRG1_Q92597_49_GETITGLLQEFDVQEQDIETLHGSVHVTLCGTPK (UniProt Q92597)” it is 0.173; for “NDUFAF7_Q7L592_275_DHVEVCPDAGVIIEELSQR (UniProt Q7L592)” it is 0.211.

The same assay, now with this note: 50 µM; THP-1; incubation time: 4 h.
As for “NCF2_P19878_514_VFVEDCATTDLESTR (UniProt P19878)”, the “probe-labelled cysteine peptide fold change” value was -0.00506.
On the same count and under the same terms, the figure for “NDUFV1_P49821_385_HESCGQCTPCR (UniProt P49821)” is 0.106; for “NFATC2IP_Q8NCF5_332_LGVADIIDCVVLTSSPEATETSQQLQLR (UniProt Q8NCF5)” it is 0.119; for “NET1_Q7Z628_267_GYCSNQLAAK (UniProt Q7Z628)” it is 0.103.
In the case of “NGLY1_Q96IV0_352_WLHCDACEDVCDKPLLYEIGWGK (UniProt Q96IV0)”, the “probe-labelled cysteine peptide fold change” value stood at 0.264.
On the same count and under the same terms, to “NF2_P35240_133_IYCPPEASVLLASYAVQAK (UniProt P35240)” belongs -0.109; to “NFX1_Q12986_362_YECMVCCELVR (UniProt Q12986)”, 0.158; to “NHP2_Q9NX24_142_PHEEYQEAYDECLEEVQSLPLPL (UniProt Q9NX24)”, 0.075.
On the same count and under the same terms, the figure for “NFX1_Q12986_295_STCDSENLAVINK (UniProt Q12986)” is -0.0282; for “NFX1_Q12986_832_SNIPCHLVDISCGLPCSATLPCGMHK (UniProt Q12986)” it is 0.0383; for “NDC80_O14777_100_QLCEFLTENGYAHNVSMK (UniProt O14777)” it is -0.0173.
On the same count and under the same terms, to “NDUFS5_O43920_33_CHAFEK (UniProt O43920)” belongs -0.0478.
With “NCOA5_Q9HCD5_200_FDAERPVDCSVIVVNK (UniProt Q9HCD5)”, the “probe-labelled cysteine peptide fold change” value turned out to be 0.0985.
Same read-out and setting: to “NDUFS1_P28331_226_MFMSELSGNIIDICPVGALTSK (UniProt P28331)” belongs -0.099.
Still for that read-out and setting: the figure for “NDUFB7_P17568_80_RDSFPNFLACK (UniProt P17568)” is 0.0455; for “NCDN_Q9UBB6_98_EAPDGCPDHVLR (UniProt Q9UBB6)” it is 0.0475; for “NFKB1_P19838_161_MTEACIR (UniProt P19838)” it is 0.0321.
Same read-out and setting: to “NECTIN2_Q92692_238_ADGVTVTCK (UniProt Q92692)” belongs 0.103; to “NDUFA10_O95299_183_QCVDHYNEVK (UniProt O95299)”, 0.0116.
For the target “NCKIPSD_Q9NZQ3_412+429_CYLEELLHILTDADPEVCKK (UniProt Q9NZQ3)”, the “probe-labelled cysteine peptide fold change” value was determined as 0.0531.
On the same count and under the same terms, to “NDUFB9_Q9Y6M9_103_VPEWCLDDWHPSEK (UniProt Q9Y6M9)” belongs 0.0236; to “NDUFA2_O43678_58_ECSDVQPK (UniProt O43678)”, -0.288.
The same measure, in the same setting: the figure for “NFATC3_Q12968_90_NYEGTCEIPESK (UniProt Q12968)” is -0.185; for “NDUFV1_P49821_238_LKPPFPADVGVFGCPTTVANVETVAVSPTICR (UniProt P49821)” it is -0.105; for “NELFCD_Q8IXH7_461_YFQLQTDHTPVHLALLDEISTCHQLLHPQVLQLLVK (UniProt Q8IXH7)” it is 0.148.
Still for that read-out and setting: to “NIFK_Q9BYG3_118_LLECHFMPPEK (UniProt Q9BYG3)” belongs -0.00224.
As to “NDUFB11_Q9NX14_141_YREANGLPIMESNCFDPSK (UniProt Q9NX14)”, the “probe-labelled cysteine peptide fold change” value was -0.313.
On to “NDUFS6_O75380_112_TGTCGYCGLQFR (UniProt O75380)”, for which the “probe-labelled cysteine peptide fold change” value is -0.229.
The same measure, in the same setting: the figure for “NCL_P19338_543_EALNSCNK (UniProt P19338)” is -0.0715; for “NIPSNAP1_Q9BPW8_106_LHLDEDYPCSLVGNWNTWYGEQDQAVHLWR (UniProt Q9BPW8)” it is -0.172; for “NDRG3_Q9UGV2_166_FALNHPELVEGLVLINVDPCAK (UniProt Q9UGV2)” it is 0.193.
On the same count and under the same terms, the figure for “NCSTN_Q92542_586_EQCQDPSKVPSENK (UniProt Q92542)” is -0.219.
Consider “NDUFAF6_Q330K2_236_VFLPMDICMLHGVSQEDFLR (UniProt Q330K2)”, for which the “probe-labelled cysteine peptide fold change” value is -0.0128.
Still for that read-out and setting: the figure for “NIT1_Q86X76_292_CSEGPGLCLAR (UniProt Q86X76)” is 0.134.
For the target “NHP2_Q9NX24_92_GIMVLAGDTLPIEVYCHLPVMCEDR (UniProt Q9NX24)”, the “probe-labelled cysteine peptide fold change” value was -0.298.
On the same count and under the same terms, to “NELFA_Q9H3P2_44_LCFHGLSSAVK (UniProt Q9H3P2)” belongs 0.126.
Still for that read-out and setting: the figure for “NELFCD_Q8IXH7_398_AVETVHNLCCNENK (UniProt Q8IXH7)” is 0.0285; for “NCOR2_Q9Y618_1289_KGHVLSYEGGMSVTQCSK (UniProt Q9Y618)” it is -0.119.
The same measure, in the same setting: to “NDRG1_Q92597_49_GETITGLLQEFDVQEQDIETLHGSVHVTLCGTPK (UniProt Q92597)” belongs -0.0889; to “NDUFAF7_Q7L592_275_DHVEVCPDAGVIIEELSQR (UniProt Q7L592)”, 0.253.
